Source: publication PMC8265170
No constants are given. Whether binding was seen depends on the method and setting. Binding seen in cells or lysates may run through a third protein. Some results given as binding are weak or reduced against the parent protein; the word gives no strength.

By UniProt entry, the sequences of proteins in these tests, tags left out.
UniProt Q92905: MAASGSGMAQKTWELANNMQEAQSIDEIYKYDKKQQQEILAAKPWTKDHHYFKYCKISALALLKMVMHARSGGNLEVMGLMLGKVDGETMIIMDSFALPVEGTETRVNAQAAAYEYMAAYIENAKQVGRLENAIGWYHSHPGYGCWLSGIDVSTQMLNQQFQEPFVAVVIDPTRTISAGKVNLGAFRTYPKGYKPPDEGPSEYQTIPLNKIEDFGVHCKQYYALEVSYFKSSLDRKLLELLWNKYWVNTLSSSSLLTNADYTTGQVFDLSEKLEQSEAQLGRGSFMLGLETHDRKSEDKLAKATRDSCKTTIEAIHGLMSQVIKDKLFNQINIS

Biological target: T1, S100A7 (intracellular, in KYSE-30 and KYSE-150 cells) (human) (UniProt P31151)
T1 sequence: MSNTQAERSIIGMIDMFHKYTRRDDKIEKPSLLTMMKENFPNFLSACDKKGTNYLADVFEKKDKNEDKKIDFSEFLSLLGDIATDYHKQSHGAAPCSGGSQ
Test: co-IP; anti-S100A7 co-immunoprecipitation from KYSE-30 and KYSE-150 cells, western blot for JAB1; beads only as blank control

With “C-Jun activation domain-binding protein-1 (JAB1) (from UniProt Q92905 1-334)” the binding was “binds”.
